PubChem BioAssay AID1508597, Cure First, 2020
Purpose: 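Knock-downs altering ovarian cancer cell survival with or without PARP inhibitor rucaparib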 (primary screen). System: human ovarian carcinoma lines grown from tumours: OCI-P5x (papillary serous) and OCI-C5x (clear cell). Reagents: siRNA pool against human genes, 1.25 pmol siRNA per well. Duration: 72 h or 96 h, depending on the cell culture. Conditions: rucaparib 20 µM (about IC30) or vehicle, present until read-out. Rucaparib or vehicle: Rucaparib. Cell line: OCI-P5x (serous). Measured: 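ATP luminescence measured at 72 or 96 h according to the culture, then normalised and expressed as percent viability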. Scale: viability, normalised: higher = more viable cells remaining. Hit rule: 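a well counts as a hit if its normalised viability is under 80 percent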. Meaning of the calls: active = viability under 80%; inactive = viability 80% or more.
This is a random part of the about 2,100 reagents, under one of the conditions tested. 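Calls flag viability under 80% in either arm, not effects specific to rucaparib; the reference for percent is not stated.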 The record does not give: the 100% reference.

Gene,technical replicate,"viability, normalised (%)",call
TDRD3,1,61.9,active
TDRD3,2,59.5,active
TDRD3,3,49.8,active
IRAK4,1,86.9,inactive
IRAK4,2,72.4,active
IRAK4,3,50.4,active
RYK,1,88.6,inactive
RYK,2,68.1,active
RYK,3,70.6,active
DAP3,1,49.6,active
DAP3,2,59.1,active
DAP3,3,65.1,active
MACROH2A1,1,57.4,active
MACROH2A1,2,57.6,active
MACROH2A1,3,47.9,active
SLC22A11,1,33.5,active
SLC22A11,2,34,active
SLC22A11,3,35.9,active
POU5F1,1,60.8,active
POU5F1,2,52,active
POU5F1,3,46.7,active
PDZD2,1,86.6,inactive
PDZD2,2,101,inactive
PDZD2,3,96.3,inactive
BMI1,1,90.5,inactive
BMI1,2,88.5,inactive
BMI1,3,104,inactive
FYN,1,87.4,inactive
FYN,2,79.7,active
FYN,3,77.3,active
BMP2,1,48.4,active
BMP2,2,66.4,active
BMP2,3,58.4,active
PTGR1,1,47,active
PTGR1,2,50.3,active
PTGR1,3,46.3,active
PTPN9,1,43.4,active
PTPN9,2,48.1,active
PTPN9,3,97.6,inactive
KSR2,1,101,inactive
KSR2,2,102,inactive
KSR2,3,70.8,active
SPTB,1,67.5,active
SPTB,2,66.1,active
SPTB,3,72.9,active
CHMP4C,1,74.1,active
CHMP4C,2,71.2,active
CHMP4C,3,70.4,active
KIT,1,74.8,active
KIT,2,71,active
KIT,3,65.7,active
FRMPD4,1,63.9,active
FRMPD4,2,59.8,active
FRMPD4,3,60,active
UCHL5,1,55.8,active
UCHL5,2,78.1,active
UCHL5,3,44.2,active
ARAF,1,104,inactive
ARAF,2,93.2,inactive
ARAF,3,92.8,inactive
CLDN2,1,65.9,active
CLDN2,2,59.5,active
CLDN2,3,59.9,active
SETD2,1,45.3,active
SETD2,2,62.7,active
SETD2,3,49.9,active
TEC,1,106,inactive
TEC,2,106,inactive
TEC,3,105,inactive
HDAC6,1,62.7,active
HDAC6,2,67,active
HDAC6,3,71.2,active
CDK14,1,97.4,inactive
CDK14,2,98.9,inactive
CDK14,3,85.5,inactive

In a second layout: entries from further up.
Gene | technical replicate | viability, normalised (%) | call
CDK14 | 1 | 97.4 | inactive
CDK14 | 2 | 98.9 | inactive
CDK14 | 3 | 85.5 | inactive
